# Some of the results follow. Most values lie at the level of the controls, where differences are scatter.
# Chains of the proteins cited; added tags and fusions are not shown. Lines headed by an entry give the natural chain unless they say otherwise; changes in a name come on top.
# UniProt O95239: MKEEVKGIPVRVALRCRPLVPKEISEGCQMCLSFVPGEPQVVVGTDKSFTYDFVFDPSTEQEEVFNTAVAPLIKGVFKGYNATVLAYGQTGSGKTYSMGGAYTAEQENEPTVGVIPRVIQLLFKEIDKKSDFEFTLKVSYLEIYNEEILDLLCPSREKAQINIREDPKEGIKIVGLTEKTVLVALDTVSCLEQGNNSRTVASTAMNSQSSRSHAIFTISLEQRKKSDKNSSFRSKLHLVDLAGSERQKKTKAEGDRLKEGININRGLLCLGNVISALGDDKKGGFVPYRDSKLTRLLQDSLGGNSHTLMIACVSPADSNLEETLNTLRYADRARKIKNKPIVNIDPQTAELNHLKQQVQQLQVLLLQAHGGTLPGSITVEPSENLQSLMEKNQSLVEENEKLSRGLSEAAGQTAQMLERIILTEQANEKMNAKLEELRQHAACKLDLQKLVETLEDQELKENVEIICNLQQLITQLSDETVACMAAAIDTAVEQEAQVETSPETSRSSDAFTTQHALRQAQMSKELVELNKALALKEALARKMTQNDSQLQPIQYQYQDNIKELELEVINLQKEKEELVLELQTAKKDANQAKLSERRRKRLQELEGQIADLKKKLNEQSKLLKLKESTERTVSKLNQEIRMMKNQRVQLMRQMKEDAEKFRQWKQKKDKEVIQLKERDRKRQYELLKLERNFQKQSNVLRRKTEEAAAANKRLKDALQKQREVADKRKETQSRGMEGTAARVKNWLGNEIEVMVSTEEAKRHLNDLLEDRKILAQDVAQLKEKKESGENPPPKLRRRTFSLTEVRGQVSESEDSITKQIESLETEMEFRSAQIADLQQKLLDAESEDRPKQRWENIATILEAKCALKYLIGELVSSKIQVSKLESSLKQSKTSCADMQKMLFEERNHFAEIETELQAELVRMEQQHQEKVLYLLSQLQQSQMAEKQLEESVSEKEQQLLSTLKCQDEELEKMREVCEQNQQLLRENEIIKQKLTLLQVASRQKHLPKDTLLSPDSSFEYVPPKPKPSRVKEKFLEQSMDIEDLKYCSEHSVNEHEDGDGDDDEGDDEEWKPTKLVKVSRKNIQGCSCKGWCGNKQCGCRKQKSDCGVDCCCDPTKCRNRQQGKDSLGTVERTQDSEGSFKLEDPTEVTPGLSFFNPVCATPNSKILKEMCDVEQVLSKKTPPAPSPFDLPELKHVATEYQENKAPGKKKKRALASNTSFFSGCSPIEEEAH
# UniProt O95861: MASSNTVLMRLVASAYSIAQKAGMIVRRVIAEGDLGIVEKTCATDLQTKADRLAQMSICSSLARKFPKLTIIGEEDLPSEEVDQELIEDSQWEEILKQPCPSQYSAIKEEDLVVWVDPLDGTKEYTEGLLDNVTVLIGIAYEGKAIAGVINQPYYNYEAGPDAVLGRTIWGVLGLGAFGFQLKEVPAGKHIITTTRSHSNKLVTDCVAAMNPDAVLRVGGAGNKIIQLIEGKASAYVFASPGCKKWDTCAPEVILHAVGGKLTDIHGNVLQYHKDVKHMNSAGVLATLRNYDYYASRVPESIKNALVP
# UniProt O94766: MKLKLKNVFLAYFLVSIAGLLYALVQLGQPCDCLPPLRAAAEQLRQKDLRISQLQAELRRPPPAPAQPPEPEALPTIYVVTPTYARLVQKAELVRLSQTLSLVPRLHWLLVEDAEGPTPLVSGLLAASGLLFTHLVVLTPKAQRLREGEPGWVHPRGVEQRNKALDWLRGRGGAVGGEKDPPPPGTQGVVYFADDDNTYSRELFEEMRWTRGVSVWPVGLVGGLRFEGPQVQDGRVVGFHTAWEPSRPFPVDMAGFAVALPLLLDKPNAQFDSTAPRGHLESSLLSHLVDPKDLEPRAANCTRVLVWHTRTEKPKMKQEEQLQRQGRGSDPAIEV
# UniProt O95785: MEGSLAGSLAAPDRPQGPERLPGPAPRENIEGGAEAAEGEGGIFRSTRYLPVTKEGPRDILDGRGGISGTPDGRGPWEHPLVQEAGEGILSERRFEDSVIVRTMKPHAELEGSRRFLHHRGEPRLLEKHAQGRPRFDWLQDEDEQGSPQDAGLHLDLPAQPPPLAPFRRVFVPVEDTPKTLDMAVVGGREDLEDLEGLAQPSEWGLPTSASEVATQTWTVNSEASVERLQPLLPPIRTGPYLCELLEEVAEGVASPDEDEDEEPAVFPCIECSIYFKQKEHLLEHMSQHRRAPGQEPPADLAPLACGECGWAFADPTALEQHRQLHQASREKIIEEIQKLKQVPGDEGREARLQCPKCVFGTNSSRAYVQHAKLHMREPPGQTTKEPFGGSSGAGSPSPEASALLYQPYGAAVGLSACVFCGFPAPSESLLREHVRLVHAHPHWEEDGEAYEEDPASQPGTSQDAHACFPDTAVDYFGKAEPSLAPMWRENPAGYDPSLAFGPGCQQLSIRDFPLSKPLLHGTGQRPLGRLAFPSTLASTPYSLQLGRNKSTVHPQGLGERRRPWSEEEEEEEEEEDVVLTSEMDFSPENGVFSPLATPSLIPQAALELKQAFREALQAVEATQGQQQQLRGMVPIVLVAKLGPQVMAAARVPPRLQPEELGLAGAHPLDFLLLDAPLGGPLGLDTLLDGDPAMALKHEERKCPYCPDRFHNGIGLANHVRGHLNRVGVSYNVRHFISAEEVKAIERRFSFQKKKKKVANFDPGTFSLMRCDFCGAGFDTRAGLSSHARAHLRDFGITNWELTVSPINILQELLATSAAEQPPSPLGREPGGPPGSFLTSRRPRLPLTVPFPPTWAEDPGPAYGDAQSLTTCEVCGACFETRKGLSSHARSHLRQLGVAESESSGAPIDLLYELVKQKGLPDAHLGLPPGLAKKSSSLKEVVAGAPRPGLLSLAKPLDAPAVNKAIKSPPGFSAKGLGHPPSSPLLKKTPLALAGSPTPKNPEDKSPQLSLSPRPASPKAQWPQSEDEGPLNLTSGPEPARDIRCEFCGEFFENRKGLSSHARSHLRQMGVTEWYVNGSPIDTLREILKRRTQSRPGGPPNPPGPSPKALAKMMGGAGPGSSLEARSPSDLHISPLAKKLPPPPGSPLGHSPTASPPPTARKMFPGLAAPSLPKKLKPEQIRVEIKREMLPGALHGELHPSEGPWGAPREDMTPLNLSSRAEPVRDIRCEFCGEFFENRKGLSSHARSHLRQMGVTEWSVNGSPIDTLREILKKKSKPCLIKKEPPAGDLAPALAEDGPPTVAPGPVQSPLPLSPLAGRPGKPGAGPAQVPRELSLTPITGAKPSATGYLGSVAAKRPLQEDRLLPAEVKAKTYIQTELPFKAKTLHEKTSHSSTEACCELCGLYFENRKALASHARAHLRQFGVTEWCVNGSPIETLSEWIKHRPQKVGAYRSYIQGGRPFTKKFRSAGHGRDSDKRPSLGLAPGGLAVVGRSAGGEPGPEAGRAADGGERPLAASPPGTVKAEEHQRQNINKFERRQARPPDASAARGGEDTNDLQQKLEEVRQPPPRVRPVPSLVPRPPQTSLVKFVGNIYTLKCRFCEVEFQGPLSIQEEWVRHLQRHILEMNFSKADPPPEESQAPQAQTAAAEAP
# UniProt O95881: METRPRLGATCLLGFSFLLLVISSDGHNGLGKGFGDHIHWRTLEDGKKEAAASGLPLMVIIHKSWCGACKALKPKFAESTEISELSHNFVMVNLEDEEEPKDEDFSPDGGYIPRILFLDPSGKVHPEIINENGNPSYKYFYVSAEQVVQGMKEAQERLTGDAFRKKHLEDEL
# UniProt O75912: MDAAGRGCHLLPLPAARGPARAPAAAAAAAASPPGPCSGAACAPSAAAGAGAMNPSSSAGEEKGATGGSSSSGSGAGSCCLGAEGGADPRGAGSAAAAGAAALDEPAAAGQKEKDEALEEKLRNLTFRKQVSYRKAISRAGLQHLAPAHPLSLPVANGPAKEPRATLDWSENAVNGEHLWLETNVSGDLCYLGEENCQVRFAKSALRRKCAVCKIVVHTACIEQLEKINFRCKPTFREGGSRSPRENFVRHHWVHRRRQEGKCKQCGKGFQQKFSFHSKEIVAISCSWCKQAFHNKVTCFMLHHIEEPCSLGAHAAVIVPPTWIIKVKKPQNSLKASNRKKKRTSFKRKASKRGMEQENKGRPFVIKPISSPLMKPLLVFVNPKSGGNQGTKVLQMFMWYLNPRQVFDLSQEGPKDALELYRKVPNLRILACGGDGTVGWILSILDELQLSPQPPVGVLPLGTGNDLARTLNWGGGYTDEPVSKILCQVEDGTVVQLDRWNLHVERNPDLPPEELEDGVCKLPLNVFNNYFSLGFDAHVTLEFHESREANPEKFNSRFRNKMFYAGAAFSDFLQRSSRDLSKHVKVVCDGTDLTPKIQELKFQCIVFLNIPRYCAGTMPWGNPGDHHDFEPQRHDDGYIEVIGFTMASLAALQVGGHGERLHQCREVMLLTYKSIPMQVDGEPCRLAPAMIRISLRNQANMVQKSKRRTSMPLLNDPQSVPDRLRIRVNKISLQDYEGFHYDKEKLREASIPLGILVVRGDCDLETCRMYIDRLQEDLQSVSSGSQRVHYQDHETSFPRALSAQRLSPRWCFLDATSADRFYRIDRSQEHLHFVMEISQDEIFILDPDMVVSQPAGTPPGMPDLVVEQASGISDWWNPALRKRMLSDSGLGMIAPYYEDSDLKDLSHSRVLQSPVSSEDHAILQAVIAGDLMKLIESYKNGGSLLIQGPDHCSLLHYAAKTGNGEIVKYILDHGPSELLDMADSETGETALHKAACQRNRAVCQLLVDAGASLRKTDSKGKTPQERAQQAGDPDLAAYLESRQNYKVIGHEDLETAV
# UniProt O95456: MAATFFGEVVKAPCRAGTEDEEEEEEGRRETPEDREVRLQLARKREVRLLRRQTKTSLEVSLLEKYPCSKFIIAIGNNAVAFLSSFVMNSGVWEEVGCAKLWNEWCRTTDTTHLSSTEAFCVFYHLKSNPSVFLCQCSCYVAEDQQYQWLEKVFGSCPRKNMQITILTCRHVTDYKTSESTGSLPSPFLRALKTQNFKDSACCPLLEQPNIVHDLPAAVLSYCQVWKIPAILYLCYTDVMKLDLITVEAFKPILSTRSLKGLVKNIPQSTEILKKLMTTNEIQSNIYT
# UniProt O94953: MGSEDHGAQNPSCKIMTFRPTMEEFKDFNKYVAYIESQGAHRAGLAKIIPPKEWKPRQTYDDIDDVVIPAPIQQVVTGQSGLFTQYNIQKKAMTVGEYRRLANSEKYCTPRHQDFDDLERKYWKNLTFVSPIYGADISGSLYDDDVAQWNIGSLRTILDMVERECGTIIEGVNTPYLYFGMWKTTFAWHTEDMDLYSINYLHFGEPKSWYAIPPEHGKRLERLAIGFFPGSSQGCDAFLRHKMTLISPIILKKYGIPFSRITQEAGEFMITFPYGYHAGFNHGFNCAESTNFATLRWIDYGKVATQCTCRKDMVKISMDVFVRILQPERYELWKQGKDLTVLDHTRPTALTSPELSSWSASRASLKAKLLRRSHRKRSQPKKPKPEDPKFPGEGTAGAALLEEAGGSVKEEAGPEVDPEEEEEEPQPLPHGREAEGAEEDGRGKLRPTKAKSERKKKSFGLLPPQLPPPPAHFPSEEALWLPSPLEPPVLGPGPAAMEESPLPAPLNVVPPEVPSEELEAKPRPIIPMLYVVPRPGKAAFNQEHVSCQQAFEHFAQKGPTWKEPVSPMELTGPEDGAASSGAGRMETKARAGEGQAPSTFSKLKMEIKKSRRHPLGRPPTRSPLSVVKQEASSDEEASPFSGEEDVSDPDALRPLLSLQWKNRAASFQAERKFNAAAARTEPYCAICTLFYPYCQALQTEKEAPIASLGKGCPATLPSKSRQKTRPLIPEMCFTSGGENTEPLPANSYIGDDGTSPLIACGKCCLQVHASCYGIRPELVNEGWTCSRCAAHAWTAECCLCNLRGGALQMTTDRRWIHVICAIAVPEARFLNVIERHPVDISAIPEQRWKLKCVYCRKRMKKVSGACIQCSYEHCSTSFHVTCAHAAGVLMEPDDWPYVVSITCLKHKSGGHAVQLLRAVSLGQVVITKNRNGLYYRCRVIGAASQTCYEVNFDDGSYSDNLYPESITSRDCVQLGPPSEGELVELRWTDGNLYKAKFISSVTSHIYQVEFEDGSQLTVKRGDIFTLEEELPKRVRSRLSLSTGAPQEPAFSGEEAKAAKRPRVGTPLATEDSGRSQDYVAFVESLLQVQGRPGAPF
# UniProt O95571: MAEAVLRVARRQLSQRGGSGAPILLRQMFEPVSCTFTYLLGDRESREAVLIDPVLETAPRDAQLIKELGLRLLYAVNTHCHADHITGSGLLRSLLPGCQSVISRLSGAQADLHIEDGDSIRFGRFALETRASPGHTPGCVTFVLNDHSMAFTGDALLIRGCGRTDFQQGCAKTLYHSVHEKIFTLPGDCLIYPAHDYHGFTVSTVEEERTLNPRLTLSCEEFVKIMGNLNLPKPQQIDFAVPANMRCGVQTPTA
# Compound: CN[C@@H]1C[C@H]2O[C@@](C)([C@@H]1OC)n1c3ccccc3c3c4c(c5c6ccccc6n2c5c31)C(=O)NC4 [staurosporine]
# Test: log2 fold change of tryptic peptide abundance, ligand vs vehicle (limited proteolysis) (log2 ratio); higher = more trypsin-susceptible (destabilized)
# Conditions: ligand concentration: 20 uM; sample: K562 cleared lysate; digestion: 4 min, 22 C (HT-PELSA RT4min, Orbitrap Astral)
row,Target,log2 fold change
1,"KIF4A (peptide sequence: GGFVPYRDSK, peptide start residue: 283) (UniProt O95239)",0.384
2,"TNKS (peptide sequence: ELLEACR, peptide start residue: 185) (UniProt O95271)",-0.227
3,"BPNT1 (peptide sequence: NYDYYASR, peptide start residue: 290) (UniProt O95861)",0.305
4,"B3GAT3 (peptide sequence: FEGPQVQDGR, peptide start residue: 226) (UniProt O94766)",0.228
5,"DDHD2 (peptide sequence: DLQEIGIPLGPR, peptide start residue: 423) (UniProt O94830)",-0.321
6,"WIZ (peptide sequence: PGLLSLAKPLDAPAVNK, peptide start residue: 948) (UniProt O95785)",-0.717
7,"TXNDC12 (peptide sequence: VHPEIINENGNPSYK, peptide start residue: 124) (UniProt O95881)",0.349
8,"UniProt O75912 (peptide sequence: GMEQENKGR, peptide start residue: 354)",-0.0272
9,"PSMG1 (peptide sequence: AGTEDEEEEEEGRR, peptide start residue: 16) (UniProt O95456)",-0.107
10,"UniProt O94953 (peptide sequence: AAFNQEHVSCQQAFEHFAQK, peptide start residue: 538)",-0.667
11,"ETHE1 (peptide sequence: TLYHSVHEK, peptide start residue: 173) (UniProt O95571)",-0.6

# Reference: the supplement of paper PMC12819154, “High-throughput peptide-centric local stability assay extends protein–ligand identification to membrane proteins, tissues and bacteria” (Nature Structural & Molecular Biology, 2025)
